Experimental data from the supplement of paper PMC10849652.
The list shows a part of the results.

Amino acid sequences for entries named in this document (tags omitted). A change or cut given only in a name is not applied to a line headed by its entry.
UniProt Q9UHD9, whole entry, looked up: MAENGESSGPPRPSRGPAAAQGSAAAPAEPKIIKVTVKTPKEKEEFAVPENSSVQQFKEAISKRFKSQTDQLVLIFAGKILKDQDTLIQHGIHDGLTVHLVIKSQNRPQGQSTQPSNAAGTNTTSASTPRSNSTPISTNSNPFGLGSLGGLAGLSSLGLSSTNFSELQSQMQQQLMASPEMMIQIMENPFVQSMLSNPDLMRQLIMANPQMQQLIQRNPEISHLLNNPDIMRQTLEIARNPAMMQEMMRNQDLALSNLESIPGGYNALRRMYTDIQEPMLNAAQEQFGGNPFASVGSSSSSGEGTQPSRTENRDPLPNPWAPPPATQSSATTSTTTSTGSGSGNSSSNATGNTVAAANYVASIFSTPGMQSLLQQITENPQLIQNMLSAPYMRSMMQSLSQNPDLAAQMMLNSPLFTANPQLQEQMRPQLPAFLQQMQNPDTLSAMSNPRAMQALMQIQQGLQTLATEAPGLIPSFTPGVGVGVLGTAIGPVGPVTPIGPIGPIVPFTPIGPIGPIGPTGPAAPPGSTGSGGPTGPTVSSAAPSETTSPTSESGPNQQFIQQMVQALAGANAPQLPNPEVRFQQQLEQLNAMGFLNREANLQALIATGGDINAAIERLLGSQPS
UniProt Q9HA47: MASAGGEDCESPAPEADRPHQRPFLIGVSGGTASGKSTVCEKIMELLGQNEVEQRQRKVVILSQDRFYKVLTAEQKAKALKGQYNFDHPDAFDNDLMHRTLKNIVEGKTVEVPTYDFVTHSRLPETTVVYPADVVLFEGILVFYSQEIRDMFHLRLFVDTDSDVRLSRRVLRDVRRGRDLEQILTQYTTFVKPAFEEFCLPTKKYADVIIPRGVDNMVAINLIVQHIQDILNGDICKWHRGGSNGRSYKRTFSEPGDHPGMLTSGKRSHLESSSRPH
UniProt P15374: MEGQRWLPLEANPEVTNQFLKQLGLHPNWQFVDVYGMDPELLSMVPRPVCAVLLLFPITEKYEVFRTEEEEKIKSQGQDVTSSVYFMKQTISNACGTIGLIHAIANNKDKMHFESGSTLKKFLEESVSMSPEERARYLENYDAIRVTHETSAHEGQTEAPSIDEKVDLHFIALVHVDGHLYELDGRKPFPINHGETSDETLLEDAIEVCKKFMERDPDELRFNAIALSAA
UniProt Q9BV40: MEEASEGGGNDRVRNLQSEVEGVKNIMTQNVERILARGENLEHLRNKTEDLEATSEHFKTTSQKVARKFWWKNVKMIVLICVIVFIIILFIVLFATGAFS
UniProt Q8TCY9: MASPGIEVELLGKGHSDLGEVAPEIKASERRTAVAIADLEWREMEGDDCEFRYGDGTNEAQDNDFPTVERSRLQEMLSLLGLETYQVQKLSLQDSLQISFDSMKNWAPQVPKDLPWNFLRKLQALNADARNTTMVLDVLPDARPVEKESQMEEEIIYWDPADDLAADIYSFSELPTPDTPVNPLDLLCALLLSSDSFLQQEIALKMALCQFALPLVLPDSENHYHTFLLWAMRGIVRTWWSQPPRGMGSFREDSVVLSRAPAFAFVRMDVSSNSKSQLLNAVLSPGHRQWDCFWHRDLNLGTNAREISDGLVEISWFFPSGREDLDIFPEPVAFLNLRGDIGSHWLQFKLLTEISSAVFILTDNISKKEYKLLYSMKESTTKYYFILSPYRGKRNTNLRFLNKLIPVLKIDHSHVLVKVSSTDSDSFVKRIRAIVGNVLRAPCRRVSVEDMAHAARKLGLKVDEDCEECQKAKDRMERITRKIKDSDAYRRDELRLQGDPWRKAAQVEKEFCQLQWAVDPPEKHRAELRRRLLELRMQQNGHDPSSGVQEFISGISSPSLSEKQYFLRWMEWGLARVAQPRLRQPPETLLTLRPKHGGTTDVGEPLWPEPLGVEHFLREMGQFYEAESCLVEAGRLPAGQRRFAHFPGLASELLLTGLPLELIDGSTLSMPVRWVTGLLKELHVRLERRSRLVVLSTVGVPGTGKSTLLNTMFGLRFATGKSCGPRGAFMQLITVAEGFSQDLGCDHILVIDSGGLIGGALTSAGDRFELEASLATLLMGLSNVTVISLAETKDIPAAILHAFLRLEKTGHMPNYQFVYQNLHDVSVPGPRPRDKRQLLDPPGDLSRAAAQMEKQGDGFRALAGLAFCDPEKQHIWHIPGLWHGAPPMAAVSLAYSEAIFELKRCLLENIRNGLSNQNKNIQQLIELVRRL
UniProt Q70J99: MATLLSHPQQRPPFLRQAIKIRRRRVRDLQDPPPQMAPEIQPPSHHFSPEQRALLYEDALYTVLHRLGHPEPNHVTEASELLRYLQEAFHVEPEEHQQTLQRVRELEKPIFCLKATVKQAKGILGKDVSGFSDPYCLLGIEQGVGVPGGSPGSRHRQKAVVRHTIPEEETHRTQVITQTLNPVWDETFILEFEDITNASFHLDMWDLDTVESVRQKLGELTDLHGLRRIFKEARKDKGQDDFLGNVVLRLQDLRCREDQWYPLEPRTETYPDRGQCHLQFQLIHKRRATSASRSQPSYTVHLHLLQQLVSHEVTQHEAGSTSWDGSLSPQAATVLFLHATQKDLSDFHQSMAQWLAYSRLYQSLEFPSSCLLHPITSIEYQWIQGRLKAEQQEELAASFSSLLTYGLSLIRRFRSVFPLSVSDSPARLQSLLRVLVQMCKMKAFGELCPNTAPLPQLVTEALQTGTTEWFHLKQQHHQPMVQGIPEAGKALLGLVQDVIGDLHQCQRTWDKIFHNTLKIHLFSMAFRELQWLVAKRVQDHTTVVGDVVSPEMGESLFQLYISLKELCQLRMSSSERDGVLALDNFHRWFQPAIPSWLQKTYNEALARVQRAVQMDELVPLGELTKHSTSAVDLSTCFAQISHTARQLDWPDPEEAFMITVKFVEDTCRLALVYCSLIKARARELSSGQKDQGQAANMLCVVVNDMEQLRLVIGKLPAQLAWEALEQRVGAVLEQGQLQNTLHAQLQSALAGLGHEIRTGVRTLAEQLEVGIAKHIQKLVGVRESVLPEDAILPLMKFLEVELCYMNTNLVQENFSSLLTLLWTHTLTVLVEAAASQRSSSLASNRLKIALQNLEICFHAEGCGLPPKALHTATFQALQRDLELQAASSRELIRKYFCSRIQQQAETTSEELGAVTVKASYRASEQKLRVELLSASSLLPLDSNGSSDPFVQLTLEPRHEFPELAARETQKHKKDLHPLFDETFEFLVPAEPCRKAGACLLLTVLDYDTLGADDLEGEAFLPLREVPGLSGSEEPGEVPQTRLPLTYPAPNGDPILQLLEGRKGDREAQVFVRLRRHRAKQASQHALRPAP
UniProt Q9P2Y5: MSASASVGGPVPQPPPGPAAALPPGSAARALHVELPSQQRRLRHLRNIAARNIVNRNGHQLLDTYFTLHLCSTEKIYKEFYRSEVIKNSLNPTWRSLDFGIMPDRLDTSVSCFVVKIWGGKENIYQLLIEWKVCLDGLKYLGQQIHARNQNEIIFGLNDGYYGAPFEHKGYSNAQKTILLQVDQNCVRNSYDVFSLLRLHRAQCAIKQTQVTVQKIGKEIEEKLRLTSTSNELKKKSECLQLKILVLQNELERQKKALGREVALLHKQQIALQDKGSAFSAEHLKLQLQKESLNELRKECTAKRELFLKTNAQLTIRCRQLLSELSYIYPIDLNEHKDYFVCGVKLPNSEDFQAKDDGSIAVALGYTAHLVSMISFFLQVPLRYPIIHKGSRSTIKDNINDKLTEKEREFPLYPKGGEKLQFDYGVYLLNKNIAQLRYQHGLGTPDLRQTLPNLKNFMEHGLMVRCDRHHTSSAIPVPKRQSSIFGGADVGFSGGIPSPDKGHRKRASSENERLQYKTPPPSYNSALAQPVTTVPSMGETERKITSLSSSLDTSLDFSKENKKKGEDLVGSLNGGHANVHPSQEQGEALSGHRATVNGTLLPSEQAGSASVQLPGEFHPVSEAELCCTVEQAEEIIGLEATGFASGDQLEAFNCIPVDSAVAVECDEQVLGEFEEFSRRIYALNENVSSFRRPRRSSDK
UniProt O94763, whole entry, looked up: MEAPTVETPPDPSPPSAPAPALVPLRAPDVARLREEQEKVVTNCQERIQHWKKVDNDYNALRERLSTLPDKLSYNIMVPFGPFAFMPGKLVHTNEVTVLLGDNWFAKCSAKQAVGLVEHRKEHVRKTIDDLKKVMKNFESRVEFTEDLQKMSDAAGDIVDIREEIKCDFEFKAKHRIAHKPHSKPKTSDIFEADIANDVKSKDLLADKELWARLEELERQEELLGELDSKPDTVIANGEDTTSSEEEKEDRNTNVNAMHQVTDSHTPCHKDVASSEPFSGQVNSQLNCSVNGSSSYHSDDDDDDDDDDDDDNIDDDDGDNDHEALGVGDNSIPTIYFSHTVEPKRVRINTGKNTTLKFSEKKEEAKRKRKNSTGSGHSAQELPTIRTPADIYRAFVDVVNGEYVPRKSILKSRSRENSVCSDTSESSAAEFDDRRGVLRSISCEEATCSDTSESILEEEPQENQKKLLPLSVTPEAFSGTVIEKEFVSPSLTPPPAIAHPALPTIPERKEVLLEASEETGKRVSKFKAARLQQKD
UniProt O75379: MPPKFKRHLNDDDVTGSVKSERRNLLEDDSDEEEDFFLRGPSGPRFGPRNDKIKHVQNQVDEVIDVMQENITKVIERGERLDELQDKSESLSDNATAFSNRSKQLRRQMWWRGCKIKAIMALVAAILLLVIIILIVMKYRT
UniProt O14949: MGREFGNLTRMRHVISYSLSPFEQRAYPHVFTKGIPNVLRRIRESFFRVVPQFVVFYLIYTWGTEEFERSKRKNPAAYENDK
UniProt Q9Y3C8: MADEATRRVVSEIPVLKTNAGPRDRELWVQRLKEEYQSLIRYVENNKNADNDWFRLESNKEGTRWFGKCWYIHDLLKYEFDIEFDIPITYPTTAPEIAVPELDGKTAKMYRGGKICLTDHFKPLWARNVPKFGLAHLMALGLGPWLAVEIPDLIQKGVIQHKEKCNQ
UniProt P63027, whole entry, looked up: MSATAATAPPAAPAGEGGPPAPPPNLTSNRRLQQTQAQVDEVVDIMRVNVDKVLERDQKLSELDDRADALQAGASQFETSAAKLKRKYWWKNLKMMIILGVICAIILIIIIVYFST
UniProt Q9P0L0: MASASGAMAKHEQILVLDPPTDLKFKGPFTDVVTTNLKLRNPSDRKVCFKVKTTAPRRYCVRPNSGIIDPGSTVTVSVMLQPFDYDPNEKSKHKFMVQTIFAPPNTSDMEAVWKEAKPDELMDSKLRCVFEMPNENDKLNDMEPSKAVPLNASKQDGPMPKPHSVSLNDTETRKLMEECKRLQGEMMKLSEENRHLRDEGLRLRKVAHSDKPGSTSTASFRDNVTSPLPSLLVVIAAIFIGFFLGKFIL
UniProt Q9Y5T5, whole entry, looked up: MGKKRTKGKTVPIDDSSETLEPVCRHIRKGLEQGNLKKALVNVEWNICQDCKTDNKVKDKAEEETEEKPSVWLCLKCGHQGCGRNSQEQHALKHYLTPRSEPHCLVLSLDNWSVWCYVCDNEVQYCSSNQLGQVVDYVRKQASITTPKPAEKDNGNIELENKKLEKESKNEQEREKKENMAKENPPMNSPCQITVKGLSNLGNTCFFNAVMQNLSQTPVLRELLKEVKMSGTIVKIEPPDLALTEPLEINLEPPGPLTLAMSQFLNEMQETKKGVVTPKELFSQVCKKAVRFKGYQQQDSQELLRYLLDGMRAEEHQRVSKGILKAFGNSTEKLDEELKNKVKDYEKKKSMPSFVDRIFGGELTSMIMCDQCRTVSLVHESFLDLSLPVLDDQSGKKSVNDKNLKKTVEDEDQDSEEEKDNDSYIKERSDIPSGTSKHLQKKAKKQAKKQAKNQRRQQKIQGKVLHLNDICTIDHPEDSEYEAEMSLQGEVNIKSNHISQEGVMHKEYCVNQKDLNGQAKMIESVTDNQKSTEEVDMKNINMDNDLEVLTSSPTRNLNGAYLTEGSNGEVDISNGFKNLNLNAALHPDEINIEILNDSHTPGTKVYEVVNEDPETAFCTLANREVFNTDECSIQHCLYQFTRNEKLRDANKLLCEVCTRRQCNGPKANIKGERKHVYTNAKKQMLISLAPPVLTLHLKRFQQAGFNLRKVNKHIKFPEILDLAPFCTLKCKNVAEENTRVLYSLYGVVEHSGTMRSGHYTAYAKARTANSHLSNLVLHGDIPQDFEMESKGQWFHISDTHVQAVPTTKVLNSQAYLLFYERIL
UniProt Q9NZ43: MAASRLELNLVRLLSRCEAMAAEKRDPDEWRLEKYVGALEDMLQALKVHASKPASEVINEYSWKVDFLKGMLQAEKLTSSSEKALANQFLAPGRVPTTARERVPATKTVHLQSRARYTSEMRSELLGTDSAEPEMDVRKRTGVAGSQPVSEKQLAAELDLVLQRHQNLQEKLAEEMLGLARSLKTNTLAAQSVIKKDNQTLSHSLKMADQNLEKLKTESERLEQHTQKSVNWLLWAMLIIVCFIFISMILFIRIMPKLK
UniProt P47985: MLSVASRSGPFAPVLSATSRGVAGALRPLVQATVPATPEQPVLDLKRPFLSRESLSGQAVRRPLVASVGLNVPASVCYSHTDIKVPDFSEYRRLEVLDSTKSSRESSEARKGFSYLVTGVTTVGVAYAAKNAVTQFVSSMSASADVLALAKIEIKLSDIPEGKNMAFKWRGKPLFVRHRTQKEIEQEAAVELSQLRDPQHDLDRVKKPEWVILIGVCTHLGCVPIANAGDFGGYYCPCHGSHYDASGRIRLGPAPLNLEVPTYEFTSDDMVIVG

What follows are targets tested with CC(C)(C)Cn1c(N)nc2ccc(-c3[nH]c(C(C)(C)C)nc3-c3ccc(F)cc3)nc21 [ralimetinib] (assay: log2 fold change, soluble protein after heating vs DMSO (PISA); higher = thermal stabilisation; K562 cells, 10 uM, 30 min; active = over 0.2 and 3.5 SD of the protein, either way, in both replicates (recomputed)).
Outline: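 Soluble protein was quantified by TMTpro 16plex LC-MS/MS after channel sums were equalised. It was obtained as the supernatant after 21,000xg for 90 min from pooled aliquots of K562 cells (2×10^6 cells/mL, 10 μM compound, 30 min) heated for 3 min across 48°C-58°C and extracted in PBS with 0.5% NP-40 at 4°C. Thermal stability values are relative to control samples and come from duplicates. They are given as log2 fold changes.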

log2 fold change, inactive:
UBQLN2 (UniProt Q9UHD9) 0.003, UQCC1 (UniProt Q9NVA1) -0.025, USP1 (UniProt O94782) 0.022, UCK1 (UniProt Q9HA47) -0.146, UCHL3 (UniProt P15374) -0.078, VAC14 (UniProt Q08AM6) -0.037, UTP15 (UniProt Q8TED0) 0.115, VAMP8 (UniProt Q9BV40) -0.074, VASP (UniProt P50552) 0.021, URGCP (UniProt Q8TCY9) 0.164, UBL5 (UniProt Q9BZL1) 0.045, UIMC1 (UniProt Q96RL1) 0.139, USP47 (UniProt Q96K76) 0.085, UNC13D isoform 3 (UniProt Q70J99) 0.271, UNC45A (UniProt Q9H3U1) 0.114, UVRAG (UniProt Q9P2Y5) 0.029, URI1 isoform 4 (UniProt O94763) -0.013, VAMP4 (UniProt O75379) -0.081, UQCRQ (UniProt O14949) -0.031, UBR7 (UniProt Q8N806) -0.048, UPF1 (UniProt Q92900) -0.015, UFC1 (UniProt Q9Y3C8) -0.074, UBE3C (UniProt Q15386) 0.012, UBXN4 (UniProt Q92575) -0.031, VAMP2 (UniProt P63027) 0.02, UCK2 (UniProt Q9BZX2) -0.01, VAPA (UniProt Q9P0L0) -0.059, UGGT2 (UniProt Q9NYU1) 0.018, UROS (UniProt P10746) 0.013, USP16 (UniProt Q9Y5T5) -0.217, UPF2 (UniProt Q9HAU5) 0.166, USE1 (UniProt Q9NZ43) 0.061, UBL7 (UniProt Q96S82) -0.049, UROD (UniProt P06132) 0.003, UQCRFS1 (UniProt P47985) -0.016, URI1 (UniProt O94763) -0.039, USP10 isoform 2 (UniProt Q14694) 0.062, USP30 (UniProt Q70CQ3) 0.064, UBFD1 (UniProt O14562) -0.052
